Some of these results come from one statement about several compounds together.
Tested on: human pharynx FaDu xenografts
Assay: Antitumor effect in mice bearing FaDu xenografts
Conditions: 10-day follow-up period

CC(=O)O[C@H]1C(=O)[C@@]2(C)[C@H]([C@H](OC(=O)c3ccccc3)[C@]3(O)C[C@H](OC(=O)[C@H](O)[C@@H](NC(=O)c4ccccc4)c4ccccc4)C(C)=C1C3(C)C)[C@]1(OC(C)=O)CO[C@@H]1C[C@@H]2O [paclitaxel]
increase in tumor size: up to 4 fold

Source: US7662361B2, “Methods and compositions for modulating drug activity through telomere damage” (priority 1999, dated 2010)
